Reference: article doi:10.1101/2021.03.08.434336
Where two headings read alike, the source gives them in different places. Results are given in words; binding and its absence hold for the method and conditions named. In cells and extracts the contact can be indirect. Here binding means that the protein was enriched with, or labelled near, the bait; the list need not be complete. For some assays here: Where a sequence is shown, tags or fusion partners need not be part of it.

The chains behind the UniProt entries cited, without tags or fusion partners.
UniProt Q07120: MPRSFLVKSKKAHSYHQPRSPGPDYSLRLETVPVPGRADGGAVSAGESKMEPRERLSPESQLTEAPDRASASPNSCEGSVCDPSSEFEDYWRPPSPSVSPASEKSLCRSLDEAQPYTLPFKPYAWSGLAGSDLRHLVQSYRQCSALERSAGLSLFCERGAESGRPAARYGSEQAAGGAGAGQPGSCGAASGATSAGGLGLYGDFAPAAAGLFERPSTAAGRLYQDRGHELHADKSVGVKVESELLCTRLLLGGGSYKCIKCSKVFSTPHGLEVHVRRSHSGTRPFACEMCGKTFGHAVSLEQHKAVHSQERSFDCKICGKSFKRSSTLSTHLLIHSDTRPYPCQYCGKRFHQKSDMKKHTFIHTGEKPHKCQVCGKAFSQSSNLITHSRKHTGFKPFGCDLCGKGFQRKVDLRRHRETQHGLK
UniProt Q9H165: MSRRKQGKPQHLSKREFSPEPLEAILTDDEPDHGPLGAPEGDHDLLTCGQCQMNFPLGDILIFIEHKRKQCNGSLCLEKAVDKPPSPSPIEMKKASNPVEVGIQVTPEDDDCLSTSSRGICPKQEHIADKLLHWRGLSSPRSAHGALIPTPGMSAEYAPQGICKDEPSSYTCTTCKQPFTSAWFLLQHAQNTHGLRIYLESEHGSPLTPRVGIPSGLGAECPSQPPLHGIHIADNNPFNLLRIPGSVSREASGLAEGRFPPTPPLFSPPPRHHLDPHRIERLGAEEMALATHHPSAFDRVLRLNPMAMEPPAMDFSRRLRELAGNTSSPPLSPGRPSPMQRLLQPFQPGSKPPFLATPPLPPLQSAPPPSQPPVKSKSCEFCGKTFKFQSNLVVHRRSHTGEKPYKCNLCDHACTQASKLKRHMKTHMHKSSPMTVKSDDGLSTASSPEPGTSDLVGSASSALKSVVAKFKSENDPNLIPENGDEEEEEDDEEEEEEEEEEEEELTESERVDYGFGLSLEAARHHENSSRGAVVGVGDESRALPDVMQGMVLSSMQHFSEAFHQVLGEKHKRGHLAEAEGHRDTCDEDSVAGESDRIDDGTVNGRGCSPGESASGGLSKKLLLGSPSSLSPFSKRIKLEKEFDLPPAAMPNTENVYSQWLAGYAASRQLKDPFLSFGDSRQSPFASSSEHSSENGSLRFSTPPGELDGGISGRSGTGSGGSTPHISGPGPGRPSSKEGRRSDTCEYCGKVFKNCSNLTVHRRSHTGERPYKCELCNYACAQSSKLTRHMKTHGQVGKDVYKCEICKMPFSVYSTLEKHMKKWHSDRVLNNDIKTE
UniProt Q9UKL0: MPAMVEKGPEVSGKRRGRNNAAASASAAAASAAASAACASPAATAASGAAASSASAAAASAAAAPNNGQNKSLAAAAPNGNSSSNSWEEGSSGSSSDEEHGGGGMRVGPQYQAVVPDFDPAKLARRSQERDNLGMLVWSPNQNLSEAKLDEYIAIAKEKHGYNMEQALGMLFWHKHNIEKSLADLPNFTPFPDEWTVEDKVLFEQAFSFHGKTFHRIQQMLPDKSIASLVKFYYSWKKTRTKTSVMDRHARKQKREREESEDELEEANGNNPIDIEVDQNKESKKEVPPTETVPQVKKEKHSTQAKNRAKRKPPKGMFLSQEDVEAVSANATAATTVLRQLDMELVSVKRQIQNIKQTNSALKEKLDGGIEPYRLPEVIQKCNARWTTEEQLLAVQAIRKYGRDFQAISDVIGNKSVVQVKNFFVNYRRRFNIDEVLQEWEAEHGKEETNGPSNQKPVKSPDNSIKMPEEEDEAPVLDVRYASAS

Key:
[1] = biological target: GFI1-BirA*-HA (wild type), doxycycline-inducible in CCRF-CEM cells (rat) (UniProt Q07120); experiment: proximity labelling
[2] = biological target: GFI1-BirA*-HA (wild type), doxycycline-inducible in CCRF-CEM cells (rat) (UniProt Q07120); experiment: proximity labelling; remark: listed apart in the source

For BCL11A (from UniProt Q9H165 1-835), the binding [1] was “binds”.

“CoREST (RCOR1) (from UniProt Q9UKL0 1-485)” was tested, and the binding [1] was “binds”.

B1: STAG1 (protein, UniProt Q8WVM7 1-1258)
chain: MITSELPVLQDSTNETTAHSDAGSELEETEVKGKRKRGRPGRPPSTNKKPRKSPGEKSRIEAGIRGAGRGRANGHPQQNGEGEPVTLFEVVKLGKSAMQSVVDDWIESYKQDRDIALLDLINFFIQCSGCRGTVRIEMFRNMQNAEIIRKMTEEFDEDSGDYPLTMPGPQWKKFRSNFCEFIGVLIRQCQYSIIYDEYMMDTVISLLTGLSDSQVRAFRHTSTLAAMKLMTALVNVALNLSIHQDNTQRQYEAERNKMIGKRANERLELLLQKRKELQENQDEIENMMNSIFKGIFVHRYRDAIAEIRAICIEEIGVWMKMYSDAFLNDSYLKYVGWTLHDRQGEVRLKCLKALQSLYTNRELFPKLELFTNRFKDRIVSMTLDKEYDVAVEAIRLVTLILHGSEEALSNEDCENVYHLVYSAHRPVAVAAGEFLHKKLFSRHDPQAEEALAKRRGRNSPNGNLIRMLVLFFLESELHEHAAYLVDSLWESSQELLKDWECMTELLLEEPVQGEEAMSDRQESALIELMVCTIRQAAEAHPPVGRGTGKRVLTAKERKTQIDDRNKLTEHFIITLPMLLSKYSADAEKVANLLQIPQYFDLEIYSTGRMEKHLDALLKQIKFVVEKHVESDVLEACSKTYSILCSEEYTIQNRVDIARSQLIDEFVDRFNHSVEDLLQEGEEADDDDIYNVLSTLKRLTSFHNAHDLTKWDLFGNCYRLLKTGIEHGAMPEQIVVQALQCSHYSILWQLVKITDGSPSKEDLLVLRKTVKSFLAVCQQCLSNVNTPVKEQAFMLLCDLLMIFSHQLMTGGREGLQPLVFNPDTGLQSELLSFVMDHVFIDQDEENQSMEGDEEDEANKIEALHKRRNLLAAFSKLIIYDIVDMHAAADIFKHYMKYYNDYGDIIKETLSKTRQIDKIQCAKTLILSLQQLFNELVQEQGPNLDRTSAHVSGIKELARRFALTFGLDQIKTREAVATLHKDGIEFAFKYQNQKGQEYPPPNLAFLEVLSEFSSKLLRQDKKTVHSYLEKFLTEQMMERREDVWLPLISYRNSLVTGGEDDRMSVNSGSSSSKTSSVRNKKGRPPLHKKRVEDESLDNTWLNRTDTMIQTPGPLPAPQLTSTVLRENSRPMGDQIQEPESEHGSEPDFLHNPQMQISWLGQPKLEDLNRKDRTGMNYMKVRTGVRHAVRGLMEEDAEPIFEDVMMSSRSQLEDMNEEFEDTMVIDLPPSRNRRERAELRPDFFDSAAIIEDDSGFGMPMF
B1 was tested, and the binding [2] was “binds”.

B2: HMG20B (protein, UniProt Q9P0W2 1-317)
chain: MSHGPKQPGAAAAPAGGKAPGQHGGFVVTVKQERGEGPRAGEKGSHEEEPVKKRGWPKGKKRKKILPNGPKAPVTGYVRFLNERREQIRTRHPDLPFPEITKMLGAEWSKLQPTEKQRYLDEAEREKQQYMKELRAYQQSEAYKMCTEKIQEKKIKKEDSSSGLMNTLLNGHKGGDCDGFSTFDVPIFTEEFLDQNKAREAELRRLRKMNVAFEEQNAVLQRHTQSMSSARERLEQELALEERRTLALQQQLQAVRQALTASFASLPVPGTGETPTLGTLDFYMARLHGAIERDPAQHEKLIVRIKEILAQVASEHL
B2 was tested, and the binding [2] was “binds”.

B3: GSE1 (protein, UniProt Q14687 1-1217)
chain: MKGMSHEPKSPSLGMLSTATRTTATVNPLTPSPLNGALVPSGSPATSSALSAQAAPSSSFAAALRKLAKQAEEPRGSSLSSESSPVSSPATNHSSPASTPKRVPMGPIIVPPGGHSVPSTPPVVTIAPTKTVNGVWRSESRQDAGSRSSSGGRERLIVEPPLPQEKAGGPAIPSHLLSTPYPFGLSPSSVVQDSRFPPLNLQRPVHHVVPPSTVTEDYLRSFRPYHTTDDLRMSSLPPLGLDPATAAAYYHPSYLAPHPFPHPAFRMDDSYCLSALRSPFYPIPTPGSLPPLHPSAMHLHLSGVRYPPELSHSSLAALHSERMSGLSAERLQMDEELRREREREREREREREADREREKEREREREKEREQEKEREREKERERELERQREQRAREKELLAAKALEPSFLPVAELHGLRGHATEERGKPSEQLTPTRAEKLKDAGLQAPKPVQHPLHPVPTPHHTVPSLISNHGIFSLPSSSAATALLIQRTNEEEKWLARQRRLRQEKEDRQSQVSEFRQQVLEQHLDMGRPPVPAEAEHRPESTTRPGPNRHEPGGRDPPQHFGGPPPLISPKPQLHAAPTALWNPVSLMDNTLETRRAESHSLHSHPAAFEPSRQAAVPLVKVERVFCPEKAEEGPRKREPAPLDKYQPPPPPPREGGSLEHQPFLPGPGPFLAELEKSTQTILGQQRASLPQAATFGELSGPLKPGSPYRPPVPRAPDPAYIYDEFLQQRRRLVSKLDLEERRRREAQEKGYYYDLDDSYDESDEEEVRAHLRCVAEQPPLKLDTSSEKLEFLQLFGLTTQQQKEELVAQKRRKRRRMLRERSPSPPTIQSKRQTPSPRLALSTRYSPDEMNNSPNFEEKKKFLTIFNLTHISAEKRKDKERLVEMLRAMKQKALSAAVADSLTNSPRDSPAVSLSEPATQQASLDVEKPVGVAASLSDIPKAAEPGKLEQVRPQELSRVQELAPASGEKARLSEAPGGKKSLSMLHYIRGAAPKDIPVPLSHSTNGKSKPWEPFVAEEFAHQFHESVLQSTQKALQKHKGSVAVLSAEQNHKVDTSVHYNIPELQSSSRAPPPQHNGQQEPPTARKGPPTQELDRDSEEEEEEDDEDGEDEEEVPKRKWQGIEAVFEAYQEHIEEQNLERQVLQTQCRRLEARHYSLSLTAEQLSHSVAELRSQKQKMVSERERLQAELDHLRKCLALPAMHWPRGYLKGYPR
With B3 the binding [2] was “binds”.
